The record followed here is publication PMC4823379.

The chains behind the UniProt entries cited, without tags or fusion partners. Where a name states a change or a piece, a line headed by the entry shows the natural chain unless it says otherwise.
UniProt Q9EPN1: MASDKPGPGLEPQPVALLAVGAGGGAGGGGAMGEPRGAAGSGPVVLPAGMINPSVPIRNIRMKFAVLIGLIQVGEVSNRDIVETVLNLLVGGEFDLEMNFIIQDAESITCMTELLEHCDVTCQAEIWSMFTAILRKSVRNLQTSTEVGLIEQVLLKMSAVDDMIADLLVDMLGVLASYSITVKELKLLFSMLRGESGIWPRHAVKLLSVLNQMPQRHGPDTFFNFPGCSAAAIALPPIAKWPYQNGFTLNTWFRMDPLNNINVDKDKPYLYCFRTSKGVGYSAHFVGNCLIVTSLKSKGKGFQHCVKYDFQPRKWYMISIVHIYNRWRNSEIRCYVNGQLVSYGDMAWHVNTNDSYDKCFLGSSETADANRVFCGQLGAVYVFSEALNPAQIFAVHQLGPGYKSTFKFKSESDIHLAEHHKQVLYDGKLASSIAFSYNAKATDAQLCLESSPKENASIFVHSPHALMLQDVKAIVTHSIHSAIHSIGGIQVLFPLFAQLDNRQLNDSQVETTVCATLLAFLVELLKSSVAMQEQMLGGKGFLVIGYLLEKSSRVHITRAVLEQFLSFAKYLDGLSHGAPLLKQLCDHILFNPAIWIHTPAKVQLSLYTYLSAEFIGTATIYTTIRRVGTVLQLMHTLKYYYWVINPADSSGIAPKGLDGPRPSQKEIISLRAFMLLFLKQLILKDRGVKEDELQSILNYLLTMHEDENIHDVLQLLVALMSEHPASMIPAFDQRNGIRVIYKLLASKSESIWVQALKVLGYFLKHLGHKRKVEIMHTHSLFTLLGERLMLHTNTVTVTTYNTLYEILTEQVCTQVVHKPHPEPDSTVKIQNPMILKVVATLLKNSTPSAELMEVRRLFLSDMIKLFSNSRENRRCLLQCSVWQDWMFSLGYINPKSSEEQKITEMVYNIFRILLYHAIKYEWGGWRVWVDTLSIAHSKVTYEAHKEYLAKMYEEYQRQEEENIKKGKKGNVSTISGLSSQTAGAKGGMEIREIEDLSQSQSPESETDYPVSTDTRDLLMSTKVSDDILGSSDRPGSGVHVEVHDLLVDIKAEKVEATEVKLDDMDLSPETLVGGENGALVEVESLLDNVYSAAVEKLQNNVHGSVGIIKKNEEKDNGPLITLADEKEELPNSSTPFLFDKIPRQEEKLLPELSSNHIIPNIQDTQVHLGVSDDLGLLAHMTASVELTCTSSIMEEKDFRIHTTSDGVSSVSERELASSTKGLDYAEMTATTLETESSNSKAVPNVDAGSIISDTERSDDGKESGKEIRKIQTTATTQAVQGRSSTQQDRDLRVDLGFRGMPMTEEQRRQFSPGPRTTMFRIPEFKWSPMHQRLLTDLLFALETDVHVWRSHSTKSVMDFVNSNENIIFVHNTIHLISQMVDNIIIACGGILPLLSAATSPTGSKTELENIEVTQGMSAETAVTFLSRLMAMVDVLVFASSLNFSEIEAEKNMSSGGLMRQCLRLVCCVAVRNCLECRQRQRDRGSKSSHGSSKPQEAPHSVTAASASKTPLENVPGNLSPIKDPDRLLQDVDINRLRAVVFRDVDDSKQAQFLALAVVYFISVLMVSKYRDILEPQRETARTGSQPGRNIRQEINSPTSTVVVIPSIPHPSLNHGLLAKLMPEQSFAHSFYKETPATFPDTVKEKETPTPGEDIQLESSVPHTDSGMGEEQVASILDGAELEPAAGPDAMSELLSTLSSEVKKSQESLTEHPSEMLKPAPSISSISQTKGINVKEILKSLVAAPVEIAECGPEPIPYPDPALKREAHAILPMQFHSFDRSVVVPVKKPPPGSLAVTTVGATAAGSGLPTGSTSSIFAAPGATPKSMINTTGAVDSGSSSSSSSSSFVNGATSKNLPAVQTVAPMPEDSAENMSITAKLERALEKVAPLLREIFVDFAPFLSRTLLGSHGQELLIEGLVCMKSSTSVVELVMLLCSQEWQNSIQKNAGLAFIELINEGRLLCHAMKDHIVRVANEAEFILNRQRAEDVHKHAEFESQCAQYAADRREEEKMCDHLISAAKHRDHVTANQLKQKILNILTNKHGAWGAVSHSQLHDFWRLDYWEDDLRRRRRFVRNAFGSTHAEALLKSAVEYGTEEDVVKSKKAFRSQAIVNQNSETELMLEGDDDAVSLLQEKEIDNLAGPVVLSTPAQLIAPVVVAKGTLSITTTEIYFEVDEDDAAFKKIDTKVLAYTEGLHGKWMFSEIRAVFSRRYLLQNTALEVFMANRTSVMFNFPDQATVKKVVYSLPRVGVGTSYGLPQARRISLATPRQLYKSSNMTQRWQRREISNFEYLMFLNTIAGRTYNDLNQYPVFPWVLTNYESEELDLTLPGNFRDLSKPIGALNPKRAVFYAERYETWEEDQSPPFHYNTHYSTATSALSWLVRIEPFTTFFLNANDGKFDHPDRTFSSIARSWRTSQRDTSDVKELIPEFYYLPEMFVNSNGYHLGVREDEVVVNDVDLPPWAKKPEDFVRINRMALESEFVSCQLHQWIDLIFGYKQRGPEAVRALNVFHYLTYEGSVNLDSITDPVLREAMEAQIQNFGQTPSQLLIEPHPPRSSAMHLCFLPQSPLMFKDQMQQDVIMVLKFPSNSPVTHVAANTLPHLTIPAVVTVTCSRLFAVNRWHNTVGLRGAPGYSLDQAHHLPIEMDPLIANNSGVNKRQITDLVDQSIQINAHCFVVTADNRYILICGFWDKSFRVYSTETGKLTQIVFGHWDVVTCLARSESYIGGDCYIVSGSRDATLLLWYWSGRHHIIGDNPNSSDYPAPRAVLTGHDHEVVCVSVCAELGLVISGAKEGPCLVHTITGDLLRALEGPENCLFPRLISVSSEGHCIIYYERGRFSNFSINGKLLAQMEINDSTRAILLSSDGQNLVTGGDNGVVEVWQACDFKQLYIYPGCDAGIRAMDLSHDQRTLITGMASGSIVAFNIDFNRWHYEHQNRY

Experiment [1] concerns the target T1, synapse-associated protein 102 (SAP102/Dlg3), FLAG-tagged (UniProt P70175).
T1 sequence: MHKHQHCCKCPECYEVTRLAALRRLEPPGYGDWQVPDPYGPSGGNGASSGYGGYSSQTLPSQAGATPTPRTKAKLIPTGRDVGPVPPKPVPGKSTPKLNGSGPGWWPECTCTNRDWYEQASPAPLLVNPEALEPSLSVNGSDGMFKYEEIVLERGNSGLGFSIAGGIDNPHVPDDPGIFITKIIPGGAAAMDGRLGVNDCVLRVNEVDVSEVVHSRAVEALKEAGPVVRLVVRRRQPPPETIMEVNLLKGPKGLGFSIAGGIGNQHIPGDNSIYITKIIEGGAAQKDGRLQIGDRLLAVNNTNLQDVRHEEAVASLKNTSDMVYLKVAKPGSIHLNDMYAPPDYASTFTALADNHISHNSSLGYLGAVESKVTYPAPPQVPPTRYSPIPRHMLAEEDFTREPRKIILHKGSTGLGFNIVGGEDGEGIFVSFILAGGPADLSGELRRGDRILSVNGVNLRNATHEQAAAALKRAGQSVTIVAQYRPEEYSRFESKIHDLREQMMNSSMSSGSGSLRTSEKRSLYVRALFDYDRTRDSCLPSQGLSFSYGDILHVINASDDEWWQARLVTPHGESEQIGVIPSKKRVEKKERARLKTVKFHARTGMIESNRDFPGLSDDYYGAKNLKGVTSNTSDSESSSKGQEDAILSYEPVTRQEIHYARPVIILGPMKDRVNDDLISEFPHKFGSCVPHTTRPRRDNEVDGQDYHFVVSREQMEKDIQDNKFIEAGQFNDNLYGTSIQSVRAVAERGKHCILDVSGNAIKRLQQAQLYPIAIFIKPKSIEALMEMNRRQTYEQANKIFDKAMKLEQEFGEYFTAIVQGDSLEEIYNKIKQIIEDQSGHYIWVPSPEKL
Description: co-IP; immunoprecipitation from HEK293T cells co-expressing Nbea (WT or E2218R) with FLAG-SAP102, PFKM or PSD95; immunoblot; performed as in ref. 15.

The target in experiment [2] is T2, Phospho-fructo kinase muscle (PFKM) (human) (UniProt P08237).
T2 sequence: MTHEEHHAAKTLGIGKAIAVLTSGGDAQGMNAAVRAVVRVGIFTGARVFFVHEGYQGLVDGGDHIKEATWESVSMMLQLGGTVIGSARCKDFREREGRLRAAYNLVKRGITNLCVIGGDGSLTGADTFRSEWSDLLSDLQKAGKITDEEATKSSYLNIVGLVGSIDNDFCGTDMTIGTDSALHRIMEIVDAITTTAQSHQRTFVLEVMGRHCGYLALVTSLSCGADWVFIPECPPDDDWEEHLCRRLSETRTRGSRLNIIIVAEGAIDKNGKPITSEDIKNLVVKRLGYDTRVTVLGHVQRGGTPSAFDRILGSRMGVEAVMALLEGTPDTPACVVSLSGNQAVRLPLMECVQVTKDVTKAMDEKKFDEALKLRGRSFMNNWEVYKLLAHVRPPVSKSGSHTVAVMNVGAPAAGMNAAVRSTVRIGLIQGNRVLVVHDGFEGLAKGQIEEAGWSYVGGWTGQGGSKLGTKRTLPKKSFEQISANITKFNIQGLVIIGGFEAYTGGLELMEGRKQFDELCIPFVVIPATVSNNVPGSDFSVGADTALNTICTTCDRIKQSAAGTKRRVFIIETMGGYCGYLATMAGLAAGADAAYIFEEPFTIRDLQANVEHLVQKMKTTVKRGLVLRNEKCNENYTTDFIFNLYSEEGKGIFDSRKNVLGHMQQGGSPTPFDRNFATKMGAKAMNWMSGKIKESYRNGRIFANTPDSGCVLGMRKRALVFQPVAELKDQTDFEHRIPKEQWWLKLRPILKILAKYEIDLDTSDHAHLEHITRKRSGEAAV
Described as above.

These are yes or no findings as the source states them, for the method shown. Binding seen in cells or lysates may run through a third protein. Some binding calls cover weakened binding; strength is not graded here. For some of these results: Sequences can lack the tags named with a protein.

With “Neurobeachin (Nbea), wild-type, full-length (from UniProt Q9EPN1 1-2936)”, the binding entry in experiment [1] and in experiment [2] was “binds” each time.
As for “E2218R Nbea (full-length neurobeachin with the point mutation E2218R in the pleckstrin homology domain) (from UniProt Q9EPN1 1-2936)”, the binding result in experiment [1] was “no binding”; in experiment [2] it was “binds”.
